Inconclusive results, whose numbers are uncertain, are shown with a selection of clear calls. A potency beside an inconclusive call is a rough fit, not a confirmed value. Active and inactive are the calls of the source. The call rests on the fitted dose curve; in most records, active means well fitted cell-killing curve with a large enough effect; inconclusive means small, poorly fitted or top-dose-only effect, or effect the other way; inactive means no such curve, though single readings can be large or run the other way.
Assay: Quantitative High-Throughput drug screen in 47 multiple myeloma cell lines against the NCATS MIPE library collection: XG6_PLB cell viability assay (AID 1919865); further: nearly all actives have a fitted effect of over 40% in size
Conditions: XG6 myeloma viability, CellTiter-Glo ATP luminescence, 48 h; series mostly up to 45.8 µM; viability (% of control): at the top concentration
Excerpt: PI: Beverly A. Mock Ph.D.
Laboratory of Cancer Biology and Genetics,
Center for Cancer Research, National Cancer Institute,
National Institute of Health, Bethesda, Maryland
Drug resistance and disease progression are common in multiple myeloma (MM) patients, underscoring the need for new therapeutic combinations. […] We hypothesized that effective combinations would reduce MYC expression and enhance p16 activity. […] These preclinical data identify potentially useful drug combinations for evaluation in drug-resistant MM and reveal potential mechanisms of combined drug sensitivity.
Described herein is the primary MIPE qHTS used to cherrypick compounds. Validated compounds were then further tested for potential synergistic activiy.
[1] Peat TJ, Gaikwad SM, Dubois W, Gyabaah-Kessie N, Zhang S, Gorjifard S, Phyo Z, Andres M, Hughitt VK, Simpson RM, Miller MA, Girvin AT, Taylor A, Williams D, D'Antonio N, Zhang Y, Rajagopalan A, Flietner E, Wilson K, Zhang X, Shinn P, Klumpp-Thomas C, McKnight C, Itkin Z, Chen L, Kazandijian D, Zhang J, Michalowski AM, Simmons JK, Keats J, Thomas CJ, Mock BA. Drug combinations identified by high-throughput screening promote cell cycle transition and upregulate Smad pathways in myeloma. Cancer Lett. 2023 Aug 1;568:216284. doi: 10.1016/j.canlet.2023.216284. Epub 2023 Jun 24. PMID: 37356470; PMCID: PMC10408729.
SEQUENCE No. (e.g., 1, 2, 3, etc.); […] (e.g., Cells, Incubation, Reagent, etc.); VALUE and DESCRIPTION.
1; Cells; 5 uL; white, solid bottom 1536-well Greiner assay plate.
2; Compounds; 23 nL; Kalypsis pin tool (Wako USA) equipped with a 1536-well pin head to transfer to the assay plates.
3; Incubation; 48 hours; 37C incubation.
4; Reagent;5uL; CellTiter Glo (Promega).
5; Detector; 425V; Luminescence; Viewlux PerkinElmer.
NOTES (numbers refer to Sequence numbers above)
1. The cell-based screening methods employed in this study were like those previously published. Briefly, the corresponding myeloma cell lines were screened in 1,536-well plates with 500 cells, 5-uL per well for inhibition of cell viability (assessed by measuring ATP levels with CellTiterGlo).
2. NCATS MIPE 4.0 library of approved and investigational drugs were added using the Kalypsis pin tool. Wells treated with DMSO only for 100% viability and media only for 0% viability were used as controls.
3. The assay plates were covered and incubated for 48 hours in a 37C, 5% CO2 incubator with controlled humidity.
4. After 48 hours, CellTilter-GloTM luminescent substrate mix (Promega) reagent was added to the assay plate and plates we incubated for 5 min at room temperature.
5. Signal was measured as median relative luminescence units on a ViewLux (PerkinElmer) multiplate reader.
[1] Heske CM, Davis MI, Baumgart JT, Wilson K, Gormally MV, Chen L, Zhang X, Ceribelli M, Duveau DY, Guha R, Ferrer M, Arnaldez FI, Ji J, Tran HL, Zhang Y, Mendoza A, Helman LJ, Thomas CJ. Matrix Screen Identifies Synergistic Combination of PARP Inhibitors and Nicotinamide Phosphoribosyltransferase (NAMPT) Inhibitors in Ewing Sarcoma. Clin Cancer Res. 2017 Dec 1;23(23):7301-7311. doi: 10.1158/1078-0432.CCR-17-1121. Epub 2017 Sep 12. PMID: 28899971; PMCID: PMC6636827.
Potency means the concentration at half of the fitted maximal effect.

| SMILES | Potency | viability (% of control) |
| --- | --- | --- |
| O=C(O)CCCCC(CCSCc1ccccc1)SCc1ccccc1 (configuration not stated) | inconclusive: 18.7 µM [cytotoxic, partial curve, poor fit] |  |
| COc1cc([C@@H]2c3cc4c(cc3[C@@H](O[C@@H]3O[C@@H]5CO[C@@H](C)O[C@@H]5[C@H](O)[C@@H]3O)[C@H]3COC(=O)[C@H]23)OCO4)cc(OC)c1O | inconclusive: 0.296 µM [cytotoxic, full curve] |  |
| Nc1nc(=O)n([C@H]2C[C@H](O)[C@@H](CO)O2)cc1F | inconclusive: 5.26 µM [cytotoxic, partial curve] |  |
| C[C@@H]1CC[C@@]2(OC1)OC1CC3C4CC=C5CC(O)CCC5(C)C4CCC3(C)C1[C@@H]2C (some centres not stated) | inconclusive: 37.2 µM [cytotoxic, single point] |  |
| CCCCNc1cc(C(=O)O)cc(S(N)(=O)=O)c1Oc1ccccc1 | inconclusive: 0.001 µM |  |
| O=C(O)C1CCCN(CCC=C(c2ccccc2)c2ccccc2)C1 (configuration not stated) |  | inactive: 124% |
| COc1c(N2C[C@@H]3CCCN[C@H]3C2)c(F)cc2c(=O)c(C(=O)O)cn(C3CC3)c12 | inconclusive: 0.0026 µM [rising, full curve, poor fit] |  |
| Nc1ccn(C[C@@H](CO)OCP(=O)(O)O)c(=O)n1 |  | inactive: 129% [at 23.2 µM] |
| OC(CCN1CCCCC1)(c1ccccc1)C1CC2C=CC1C2 (configuration not stated) |  | inactive: 115% |
| Cc1onc(-c2ccccc2Cl)c1C(=O)N[C@@H]1C(=O)N2[C@@H]1SC(C)(C)[C@@H]2C(=O)O |  | inactive: 108% |
| CN1[C@@H]2CCC[C@@H]1CC(NC(=O)c1nn(C)c3ccccc13)C2 (some centres not stated) |  | inactive: 112% |
| Nc1ccc(S(=O)(=O)Nc2ccnn2-c2ccccc2)cc1 |  | inactive: 108% |
| CNC(=O)CN1CCC(Oc2cc3c(Nc4cccc(Cl)c4F)ncnc3cc2OC)CC1 |  | inactive: 33.4% |
| CCN1CCN(C(=O)N[C@H](C(=O)N[C@@H]2C(=O)N3C(C(=O)O)=C(CSc4nnnn4C)CS[C@@H]23)c2ccc(O)cc2)C(=O)C1=O | inconclusive: 0.0007 µM |  |
| O=C(O)CO.[NH2-].[NH2-].[Pt+2] |  | inactive: 106% |
| COc1ccc(CCC(=O)c2c(O)cc(O[C@@H]3O[C@H](CO)[C@@H](O)[C@H](O)[C@@H]3O[C@@H]3O[C@@H](C)[C@H](O)[C@@H](O)[C@@H]3O)cc2O)cc1O | active: 5.26 µM |  |
| Nc1[nH]c(=O)ncc1F | active: 26.4 µM |  |
| CN1c2cc(O)c(N=NC(N)=O)cc2CC1S(=O)(=O)O (configuration not stated) | inconclusive: 29.6 µM [cytotoxic, single point] |  |
| CO[C@@H]1[C@H](N(C)C(=O)c2ccccc2)C[C@H]2O[C@]1(C)n1c3ccccc3c3c4c(c5c6ccccc6n2c5c31)C(=O)NC4 | active: 0.372 µM |  |
| C[C@H]1C[C@H]2[C@@H]3CCC4=CC(=O)C=C[C@]4(C)[C@@H]3C(=O)C[C@]2(C)[C@@]1(O)C(=O)CO |  | inactive: 91.2% |
| CCn1cc(C(=O)O)c(=O)c2cc(F)c(N3CCNCC3)cc21 |  | inactive: 126% |
| CC(=O)N[C@H]1[C@@H]([C@H](O)[C@H](O)CO)OC(C(=O)O)=C[C@@H]1N=C(N)N |  | inactive: 105% |

Part of the list above, set out differently.
CN1[C@@H]2CCC[C@@H]1CC(NC(=O)c1nn(C)c3ccccc13)C2 (some centres not stated)
  viability (% of control): inactive: 112%
Nc1ccc(S(=O)(=O)Nc2ccnn2-c2ccccc2)cc1
  viability (% of control): inactive: 108%

— PubChem BioAssay (NCATS)
